Measured values as given in PubChem BioAssay AID540276 (National Center for Advancing Translational Sciences (NCATS), 2011).
Out of some 300,000 compounds screened, about 5,400 (1.8%) were called active. The inconclusive results got no clear call from the source; some entries with a clear call stand among them for comparison. Calls follow the shape of the full dose curve; tested in HEK293 cells. Potencies of inconclusive entries are doubtful fits and often do not repeat.

experiment: qHTS for inhibitors of binding or entry into cells for Marburg Virus; details: Marburg virus pseudotyped entry inhibition, cell reporter; activity change, negative = inhibition: at 37.8 µM (top of the series) unless noted
% is scaled to controls: 0 for no effect and ±100 for the full control effect; potency is read from the fitted curve at half-maximal effect.

Structure (SMILES) | Potency | activity change, negative = inhibition
CCCc1ccc(NC(C)C(=O)Nc2ccc(S(=O)(=O)N3CCOCC3)cc2)cc1 (stereo unspecified) | inconclusive: 11.2 µM [inhibitor, partial curve, poor fit] | –
CCOc1ccc(N2C(=O)CC(N3CC(C)OC(C)C3)C2=O)cc1 (stereo unspecified) | inconclusive: 0.206 µM [inhibitor, full curve, poor fit] | –
CCn1c(O)c(C=NC2CCCC2)sc1=S | inconclusive: 25.9 µM [activator, single point] | –
COc1ccc(CC(=O)Nc2cc(NC(=O)Cc3ccc(OC)c(OC)c3)cc(C(=O)O)c2)cc1OC | inconclusive: 35.5 µM [activator, single point] | –
O=C(Cn1cc(SCc2ccc(F)cc2)c2ccccc21)N1CCOCC1 | inconclusive: 11.2 µM [activator, partial curve, poor fit] | –
COc1ccc(C2CC(=O)c3c([nH]c(C(=O)OCCOc4ccccc4)c3C)C2)cc1OC (stereo unspecified) | inconclusive: 8.91 µM [inhibitor, partial curve, poor fit] | –
COc1nc(C)nc(C)c1Oc1ccc(Cl)cc1Cl | inconclusive: 0.562 µM [activator, full curve, poor fit] | –
CCn1cc(C(=O)N2CCN(c3ccccc3)CC2)c(=O)c2cc(S(=O)(=O)N3CCC(C)CC3)ccc21 | inconclusive: 6.31 µM [inhibitor, partial curve, poor fit] | –
Cc1cccc(Nc2nc(-c3c(C)nc4ccccn34)cs2)c1 | inconclusive: 13 µM [inhibitor, partial curve, poor fit] | –
O=C(NC(=S)Nc1ccc(N2CCCCC2)c(Cl)c1)c1ccc2c(c1)OCCO2 | active: 1.41 µM | –
O=C1CC(Cc2ccc(Cl)cc2)C(=O)N1c1cc(Cl)ccn1 (stereo unspecified) | inconclusive: 1 µM [activator, full curve, poor fit] | –
Cc1ccc(NC(=O)C(C)N2CCCC2)cc1Cl (stereo unspecified) | inconclusive: 1 µM [activator, full curve, poor fit] | –
Fc1ccc(/C=N/NC(=S)Nc2ccc(Cl)cc2Cl)cc1 | inconclusive: 2.82 µM [inhibitor, full curve] | –
N/C(=N\OC(=O)Nc1ccccc1)c1ncc(C(F)(F)F)cc1Cl | inconclusive: 0.282 µM [activator, full curve, poor fit] | –
CCOC(=O)CNC(=S)N(CCCN1CCCCC1)Cc1cccs1 | inconclusive: 15.8 µM [inhibitor, single point] | –
CCOc1cc(C2c3c(oc4ccccc4c3=O)C(=O)N2Cc2ccccc2Cl)ccc1O (stereo unspecified) | inconclusive: 35.5 µM [activator, single point] | –
CN1CCN(CCC(=O)N/N=C/c2ccccn2)CC1 | – | inactive: 25% [at 46.1 µM]
Nc1nc(N)nc(-c2cccc(Br)c2)n1 | inconclusive: 1.78 µM [activator, partial curve, poor fit] | –
CCN(c1ccccc1)S(=O)(=O)c1cc(NC(=O)CN2CCN(C)CC2)ccc1Cl | inconclusive: 3.16 µM [inhibitor, partial curve, poor fit] | –
Cc1ccccc1CNC(=O)/C=C\C(=O)O | inconclusive: 4.47 µM [activator, full curve, poor fit] | –
CCNc1ccc(Br)cc(C(=O)/C=C/c2c(Cl)cccc2Cl)c1=O | inconclusive: 23.1 µM [inhibitor, single point] | –
COc1ccc(/C=N\Nc2ncc(F)c(N3CCOCC3)n2)cc1OC | inconclusive: 7.08 µM [inhibitor, full curve, poor fit] | –

In another format: entries from further up

| Structure (SMILES) | Potency | activity change, negative = inhibition |
| --- | --- | --- |
| N/C(=N\OC(=O)Nc1ccccc1)c1ncc(C(F)(F)F)cc1Cl | inconclusive: 0.282 µM [activator, full curve, poor fit] | – |
| CCOC(=O)CNC(=S)N(CCCN1CCCCC1)Cc1cccs1 | inconclusive: 15.8 µM [inhibitor, single point] | – |
| CCOc1cc(C2c3c(oc4ccccc4c3=O)C(=O)N2Cc2ccccc2Cl)ccc1O (stereo unspecified) | inconclusive: 35.5 µM [activator, single point] | – |
| CN1CCN(CCC(=O)N/N=C/c2ccccn2)CC1 | – | inactive: 25% [at 46.1 µM] |
| Nc1nc(N)nc(-c2cccc(Br)c2)n1 | inconclusive: 1.78 µM [activator, partial curve, poor fit] | – |
| CCN(c1ccccc1)S(=O)(=O)c1cc(NC(=O)CN2CCN(C)CC2)ccc1Cl | inconclusive: 3.16 µM [inhibitor, partial curve, poor fit] | – |

(listing goes on)

Structure (SMILES) | Potency | activity change, negative = inhibition
CC(C)(C)c1ccc(C(=O)NC(=S)Nn2cnnc2)cc1 | inconclusive: 5.01 µM [inhibitor, full curve, poor fit] | –
O=C1CCCN1CC(O)CS(=O)(=O)c1ccc(Cl)cc1 (stereo unspecified) | – | inactive: 11.8%
O=C(NC(=S)Nc1nc2c(ccc3ccccc32)s1)c1cccs1 | – | inactive: -9.31%
CC1=CC(=O)C(C(C)C)=C/C1=N/OC(=O)c1cccc([N+](=O)[O-])c1 | – | inactive: -0.84%
O=C(CSc1nc2sc3c(c2c(=O)n1-c1ccccc1)CCCC3)NCc1ccco1 | – | inactive: 14.4%
Cc1ccc(-n2cccn2)c([C@@H]2C[C@H]3CN(C)C(=O)[C@]34CCCN24)c1 | inconclusive: 14.1 µM [inhibitor, single point] | –
Cc1ccc(C(c2nnnn2C(C)(C)C)N2CCc3ccccc3C2)cc1 (stereo unspecified) | – | inactive: -6.55%
CCN1CCN(c2ccc(S(=O)(=O)N3CCCCC3)cc2NC(=O)c2ccc(C)o2)CC1 | inconclusive: 35.5 µM [inhibitor, single point] | –
COc1ccc2c(c1)c(=O)c(C(=O)c1ccc(Cl)cc1)cn2CC(=O)Nc1ccc2c(c1)OCO2 | – | inactive: -2.21% [at 46.1 µM]
CCCNC(=O)OC[C@H]1O[C@H](CCO/N=C(\C)CCN2CCc3nc(-c4ccccc4)c(-c4ccccc4)cc3C2)C=C[C@@H]1Oc1ccc(OC)cc1 | – | inactive: -39%
O=C(N/N=C/c1c(O)n(CCc2ccccc2)c(=O)[nH]c1=O)c1ccncc1 | – | inactive: 4.19%
Cc1ccc(C(=O)N2CCOCC2)cc1[N+](=O)[O-] | – | inactive: 13.5%
NS(=O)(=O)c1cccc(NC(=O)COc2ncnc3c2cnn3-c2ccccc2)c1 | inconclusive: 0.126 µM [inhibitor, full curve, poor fit] | –
CC(C)c1nnc(NC(=O)c2nc(S(=O)(=O)Cc3ccccc3)ncc2Cl)s1 | inconclusive: 35.5 µM [inhibitor, single point] | –
CS(=O)(=O)N1CCc2cc(C(=O)Nc3ccccc3)ccc21 | inconclusive: 3.16 µM [activator, full curve] | –
CCOc1ccc(CCNC(=O)Cn2c(=O)oc3ccccc32)cc1OCC | – | inactive: 0.718%
CC(=O)NC(=S)Nc1ccc(S(=O)(=O)Nc2nc(C)cc(C)n2)cc1 | inconclusive: 3.98 µM [activator, full curve, poor fit] | –
Cc1ccc(NC(=S)NCCC2=CCCCC2)cc1 | inconclusive: 5.62 µM [activator, single point] | –
CCc1nc2ccccc2c(C(=O)Nc2cccc(C)c2)c1C | inconclusive: 0.631 µM [inhibitor, partial curve, poor fit] | –
CCOC(=O)C1(CCCc2ccccc2)CCN(Cc2cn(CC)nc2C)CC1 | active: 8.91 µM | –
CN(C)c1nnnn1Cc1ccccc1 | – | inactive: -4.69% [at 46.1 µM]
C=CCn1c(CCNC(=O)c2cccs2)nnc1SCC(=O)Nc1cccc(F)c1 | – | inactive: -2.1%

Structure (SMILES) | Potency | activity change, negative = inhibition
CC1(C)CC(NC(=O)c2cccc([N+](=O)[O-])c2)CC(C)(C)N1 | inconclusive: 6.31 µM [inhibitor, partial curve, poor fit] | –
CN(C1=NS(=O)(=O)c2ccccc21)c1ccc(OC(=O)c2ccccc2)cc1 | inconclusive: 11.2 µM [activator, partial curve, poor fit] | –
COc1cc(COc2ccc3c(C)c(Cc4ccccc4)c(=O)oc3c2C)cc(OC)c1OC | inconclusive: 14.1 µM [inhibitor, partial curve, poor fit] | –
Cn1c(SCC(=O)N2CCc3ccccc3C2)nnc1-c1ccncc1 | inconclusive: 1.41 µM [inhibitor, single point] | –
CCCC(=O)NC(c1ccc(C(C)C)cc1)c1ccc2cccnc2c1O (stereo unspecified) | inconclusive: 2.24 µM [inhibitor, full curve, poor fit] | –
Cc1cc(NC(=O)CSc2ccc(-c3nc4cc(C)c(C)cc4[nH]3)cn2)no1 | inconclusive: 29.1 µM [inhibitor, single point] | –
Cc1ccc(NC(=O)c2cccc(Cl)c2)nc1 | inconclusive: 3.55 µM [activator, full curve] | –
O=C(NC1CCCCNC1=O)c1ccc(Cl)cc1 (stereo unspecified) | – | inactive: -0.854%
FC(F)(F)c1ccc(N2CCOCC2)c(Nc2nc3ccccc3n3cnnc23)c1 | active: 4.11 µM | –
COc1cc(NC(=O)c2ccc3c(c2)OCCO3)ccc1NC(=O)c1ccco1 | inconclusive: 11.2 µM [activator, partial curve, poor fit] | –
Cc1nn(Cc2ccc(C(=O)Nc3ccccc3C(F)(F)F)o2)c(C)c1Br | inconclusive: 11.6 µM [inhibitor, partial curve, poor fit] | –
CC1CN(C(=O)c2ccc(COc3ccccc3Cl)o2)CC(C)O1 (stereo unspecified) | inconclusive: 22.4 µM [inhibitor, single point] | –
O=C(CN1CCC(C(=O)c2ccc3c(c2)OCCO3)CC1)NCc1ccc(F)cc1 | inconclusive: 35.5 µM [activator, single point] | –
O=C(Cn1cc2c(n1)CCCC2)Nc1cc(C(F)(F)F)ccc1Cl | – | inactive: 27.7% [at 46.1 µM]
COc1ccc(C)cc1NC(=O)C/C(C)=N/NC(=O)Cc1cccc2ccccc12 | inconclusive: 0.794 µM [inhibitor, full curve, poor fit] | –
COc1ccc(CN2CCC(N(CCc3ccccc3)Cc3ccccc3)CC2)c(OC)c1 | inconclusive: 7.08 µM [inhibitor, full curve, poor fit] | –
Cc1cccc(NC(=O)c2ccccc2-c2ccccc2)c1 | – | inactive: -12.6% [at 46.1 µM]
COc1cccc(N2CCN(CC(=O)Nc3ccc(S(=O)(=O)N4CCCCCC4)cc3)CC2)c1 | inconclusive: 14.1 µM [inhibitor, single point] | –
COc1cc(OC)cc(C(=O)N[C@H](C(=O)OCC(=O)c2ccc3c(c2)NC(=O)CO3)C(C)C)c1 | – | inactive: 3.26%
O=C(CN1CCc2ccccc2C1)Nc1ccc(Br)cc1 | – | inactive: 19.6%
CC1(C)C[C@H]2C=C(C=O)[C@]3(C=O)C[C@]3(C)[C@H]2C1 | inconclusive: 4.11 µM [inhibitor, full curve, poor fit] | –
O=S(=O)(c1ccccc1)c1nnn2c1nc(N1CCN(c3ccccc3)CC1)c1cc(Cl)ccc12 | – | inactive: 10.9% [at 46.1 µM]
